Data taken from the supplement of paper PMC12578635.
The list shows a part of the results. No stated cut-off is given here; in the data, active = 150% or more and inactive = the rest. Most values come without repeats; read them as rough.

system: Staphylococcus aureus JE2-lux inside RAW 264.7 macrophages; assay: intracellular bacterial bioluminescence relative to DMSO vehicle; higher = higher intracellular bacterial metabolic activity; conditions: 10 µM; treatment time 4 h; gentamicin 50 µg/ml
Experimental: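 RAW 264.7 macrophages infected with bioluminescent MRSA JE2-lux (MOI 100) were dispensed into 384-well plates with 10 µM compound in the presence of 50 µg/ml gentamicin. After 4 h at 37 °C, bacterial bioluminescence (a proxy for intracellular bacterial metabolic activity) and host cell viability (CellTiter-Fluor) were read and normalised to 0.1% DMSO vehicle controls. Single-pass screen of the UNC CICBDD kinase-targeted library (>4,700 compounds).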

Intracellular bacterial bioluminescence, inactive:
CN(C)CCN(C(=O)C1CC(=O)Nc2ccccc21)C1CCCCC1 (stereo unspecified) 118%
CCOc1ccc(-c2c(C#N)c(N)nc(SCC(=O)c3ccccc3)c2C#N)cc1 58.3%
Cc1oc2ncnc(OC3CCN4Cc5ccccc5N=C34)c2c1C (stereo unspecified) 90.6%
CC1CC(NC(=O)C(=O)c2c[nH]c3ccccc23)CC(C)(C)C1 (stereo unspecified) 102%
Cc1cc(SCC(=O)OCc2ccccc2)nc(=O)[nH]1 112%
COC(=O)c1ccc(NC(=O)CSc2ncnc3sc4c(c23)CCC4)cc1 64.5%
O=C(NC(=S)Nc1ccc(S(=O)(=O)N2CCc3ccccc32)cc1)c1cccs1 85.3%
Cc1ccc(C)c(S(=O)(=O)Nc2cc(Sc3nc[nH]n3)c(O)c3ccccc23)c1 126%
CN(C)CCCN1C(=O)C(O)=C(C(=O)c2ccncc2)C1c1cccc(F)c1 (stereo unspecified) 99.1%
COc1ccc(N2CCn3c(nc4ccccc43)C2)cc1NC(=O)Nc1ccccc1 49.5%
O=C(c1cccs1)N1CCN=C1SCc1ccc(Cl)cc1 39.9%
O=C(CC1Sc2ccc(C(F)(F)F)cc2NC1=O)Nc1ccc(OC(F)F)cc1 (stereo unspecified) 38.8%
CCOCCCNC(=O)Cc1csc2nc(-c3ccc(F)cc3)cn12 38.9%
O=C(NCCCSc1nc2ccccc2s1)Nc1ncccn1 53.8%
CCCn1/c(=N/C(=O)c2c(F)cccc2F)sc2cc(S(C)(=O)=O)ccc21 110%
CC(=O)Nc1ccc(S(=O)(=O)Nc2ccc(-c3cn4ccc(C)nc4n3)cc2)cc1 105%
CCCCCC(=O)n1nc(-c2ccc(Cl)cc2)nc1N 109%
Cc1n[nH]c2c1C(c1ccc(OCc3ccccc3)cc1)C(C#N)=C(N)O2 (stereo unspecified) 106%
COc1ccc(S(=O)(=O)c2cn(CC(=O)Nc3cc(C)ccc3C)c3ccccc3c2=O)cc1 96%
CC(C)=CCSc1nc2sc3c(c2c(=O)[nH]1)CCCC3 127%
CCOc1ccccc1CNC(=O)c1c(-c2ccccc2)nnc2ccc(C)cc12 62%
Cc1nn(-c2ccccc2)c2c1C(c1ccc([N+](=O)[O-])cc1)C(C#N)=C(N)O2 (stereo unspecified) 86.1%
Cn1cccc1-c1cc2n(n1)CCC(=O)N2CC(=O)NCc1cccnc1 93.7%
Cc1oc(-c2ccno2)cc1S(=O)(=O)NCc1ccc(Cl)cc1 96.5%
COCCNc1ncnc2c1c(C)c(C)n2-c1ccc(F)c(F)c1 42.5%
COc1ccc(-c2ccc(=O)n(CCNC(=O)COc3ccccc3)n2)cc1 107%

Among those listed so far, 2 contain a furan ring, fused or not.
Intracellular bacterial bioluminescence, inactive:
Cc1oc2ncnc(OC3CCN4Cc5ccccc5N=C34)c2c1C (stereo unspecified) 90.6%
Cc1oc(-c2ccno2)cc1S(=O)(=O)NCc1ccc(Cl)cc1 96.5%
